From patent US20230235004A1 come the findings set out here.

Changes are numbered by the printed parent chain. These are yes or no findings as the source states them, for the method shown. Binding calls can cover weak binding; strength is not graded here.

For this assay, the target named is cyno MAdCAM protein (cyno). Kind of assay: Octet.

B1: MAdCAM Antibody Table 2 clone 63 (antibody, V domains shown)
VH: EVQLLESGGGLVQPGGSLRLSCAASGFTFNNYGMNWVRQAPGKGLEWVSRINSDGSSTSYADSVKGRFTISRDNSKNTLYLQMNSLRAEDTAVYYCARGAYYYYYMDVWGQGTLVTVSS
VL: EIVMTQSPATLSVSPGERATLSCRASQSVSGSYLAWYQQKPGQAPRLLIYATSSRASGIPARFSGSGSGTEFTLTISSLQSEDFAVYYCQQYYSGLTFGQGTKVEIK
As to B1, the binding entry is “binds”.

B2: MAdCAM Antibody Table 2 clone 17 (antibody, V domains shown)
VH: QVQLVQSGAEVKKPGSSVKVSCKASGYTFTDYHIHWVRQAPGQGLEWMGGIVPRSGSTTYAQKFQGRVTITADESTSTAYMELSSLRSEDTAVYYCAKDESSGWYYFDYWGQGTLVTVSS
VL: DIVMTQSPLSLPVTPGEPASISCRSSQSLLHSNGYNYLDWYLQKPGQSPQLLIYSAYNRASGVPDRFSGSGSGTDFTLKISRVEAEDVGVYYCMQALQTPLTFGQGTKVEIK
Consider B2, for which the binding entry is “binds”.

B3: MAdCAM Antibody Table 2 clone 20 (antibody, V domains shown)
VH: EVQLLESGGGLVQPGGSLRLSCAASGFTFSDSAMHWVRQAPGKGLEWVSAISGSGSTIYYADSVKGRFTISRDNSKNTLYLQMNSLRAEDTAVYYCVSDIAVAGHWYFDLWGRGTLVTVSS
VL: DIQMTQSPSSLSASVGDRVTITCRASQSISTFLNWYQQKPGKAPKLLIYAASRLEGGVPSRFSGSGSGTDFTLTISSLQPEDFATYYCQQANSFPLTFGPGTKVDIK
With B3, the binding result is recorded as “binds”.

B4: MAdCAM Antibody Table 2 clone 55 (antibody, V domains shown)
VH: EVQLLESGGGLVQPGGSLRLSCAASGFTFDDFAMHWVRQAPGKGLEWVSGISGNGDSRYYADSVKGRFTISRDNSKNTLYLQMNSLRAEDTAVYYCARDASYGGNYGMDVWGQGTTVTVSS
VL: B3 VL with R24Q, S28D, S30R, T31N, F32Y, A50K, R53T, G56S
On to B4, for which the binding entry is “binds”.

B5: MAdCAM antibody Table 1 clone 66 (scFv)
scFv: EVQLLESGGGLVQPGGSLRLSCAASGFTFSSYWMHWVRQAPGKGLEWVAAISYDGKYKDYEDSVKGRFTISRDNSKNTLYLQMNSLRAEDTAVYYCARENKQWLASFDYWGQGTLVTVSSGGGGSGGGGSGGGGSGGGGSDIQMTQSPSSLSASVGDRVTITCQASQDISNFVNWYQQKPGKAPKLLIYAANLRSGVPSRFSGSGSGTDFTLTISSLQPEDFATYYCQQANSFPVTFGPGTKVDIK
B5: the binding entry is on record as “binds”.

B6: MAdCAM antibody Table 1 clone 60 (scFv)
scFv: EVQLLESGGGLVQPGGSLRLSCAASGFTFDDYTMHWVRQAPGKGLEWVSDISGSGGSTYYADSVKGRFTISRDNSKNTLYLQMNSLRAEDTAVYYCAKDVVVAGTPLHFDYWGQGTLVTVSSGGGGSGGGGSGGGGSGGGGSDIQMTQSPSSLSASVGDRVTITCQASQDISNYLNWYQQKPGKAPKLLIYAASYLQSGVPSRFSGSGSGTDFTLTISSLQPEDFATYYCQQAHNYPITFGQGTRLEIK
Regarding B6, the binding entry is on record as “binds”.

B7: MAdCAM antibody Table 1 clone 59 (scFv)
scFv: EVQLLESGGGLVQPGGSLRLSCAASGFTFSDFWMHWVRQAPGKGLEWISYISGDSGYTNYADSVKGRFTISRDNSKNTLYLQMNSLRAEDTAVYYCARDRPYYYYMDVWGKGTTVTVSSGGGGSGGGGSGGGGSGGGGSDIQMTQSPSSLSASVGDRVTITCRASQSVSRSLAWYQQKPGKAPKLLIYAASSLQSGVPSRFSGSGSGTDFTLTISSLQPEDFATYYCQQYKSYPVTFGQGTKVEIK
With B7, the binding entry was “binds”.

B8: MAdCAM antibody Table 1 clone 65 (scFv)
scFv: QVQLVQSGAEVKKPGASVKVSCKASGYTFTRHWIHWVRQAPGQGLEWMGWINVKTGGAGYAQKFQGRVTMTRDTSTSTVYMELSSLRSEDTAVYYCARESSGWYGTDVWGQGTTVTVSSGGGGSGGGGSGGGGSGGGGSDIQMTQSPSSLSASVGDRATITCRASQSISNYLAWYQQKPGKAPKLLIYAASSLQSGVPSRFSGSGSGTDFTLTISSLQPEDFATYYCQQSNSFPLTFGGGTKVEIK
Regarding B8, the binding result is “binds”.

B9: MAdCAM antibody Table 1 clone 61 (scFv)
scFv: EVQLLESGGGLVQPGGSLRLSCAASEFTFSNAWMSWVRQAPGKGLEWVASISSTSAYIDYADSVKGRFTISRDNSKNTLYLQMNSLRAEDTAVYYCAREVVGATTFDYWGQGTLVTVSSGGGGSGGGGSGGGGSGGGGSDIQMTQSPSSLSASVGDRVTITCRASQSISTWLAWYQQKPGKAPKLLIYAASSLQSGVPSRFSGSGSGTDFTLTISSLQPEDFATYYCQQANAFPPTFGQGTRLEIK
As to B9, the binding entry is “binds”.

B10: MAdCAM Antibody Table 2 clone 60 (antibody, V domains shown)
VH: EVQLLESGGGLVQPGGSLRLSCAASGFTFSDHGMHWVRQAPGKGLEWVSVIYGGESTYYADSVKGRFTISRDNSKNTLYLQMNSLRAEDTAVYYCARDPAVAGGGIFDYWGQGTLVTVSS
VL: DIQMTQSPSSLSASVGDRVTITCRASQGISNYLAWYQQKPGKAPKLLIYDASNLETGVPSRFSGSGSGTDFTLTISSLQPEDFATYYCQQSYSTCYTFGQGTKLEIK
B10: the binding entry was “binds”.

B11: MAdCAM Antibody Table 2 clone 79 (antibody, V domains shown)
VH: EVQLLESGGGLVKPGGSLRLSCAASGFTFDDYAMHWVRQAPGKGLEWVASITSSSAFIDYAASVKGRFTISRDDSKNTLYLQMNSLKTEDTAVYYCARERVDWNSYFDLWGRGTLVTVSS
VL: EIVMTQSPATLSVSPGERATLSCRASQGISNSYLAWYQQKPGQAPRLLIYGASTRATGIPARFSGSGSGTEFTLTISSLQSEDFAVYYCQQYYTYPPTFGPGTKVDIK
Turning to B11, the binding entry was “binds”.

B12: MAdCAM Antibody Table 2 clone 4 (antibody, V domains shown)
VH: QVQLVQSGAEVKKPGASVKVSCKASGGTFSSYAISWVRQAPGQGLEWMGSINPSGDTTSYAQKFQGRVTMTRDTSTSTVYMELSSLRSEDTAVYYCAKDKAQWLVGYFDYWGQGTLVTVSS
VL: DIQMTQSPSSLSASVGDRVTITCQASQDISNSLNWYQQKPGKAPKLLIYAASSLQSGVPSRFSGSGSGTDFTLTISSLQPEDFATYYCQQSYSSVITFGQGTKVEIK
Turning to B12, the binding entry was “binds”.

B13: MAdCAM Antibody Table 2 clone 23 (antibody, V domains shown)
VH: EVQLLESGGGLVQPGGSLRLSCAASGFTFDDYAMHWVRQAPGKGLEWVSYIDTSSSHLYYADSVKGRFTISRDNSKNTLYLQMNSLRAEDTAVYYCARDEAAAGYYGMDVWGQGTTVTVSS
VL: B10 VL with R24Q, S26G, G28D, A34N, S91T, C95P, Y96I
Regarding B13, the binding entry is recorded as “binds”.

B14: MAdCAM Antibody Table 2 clone 11 (antibody, V domains shown)
VH: EVQLLESGGGLVQPGGSLRLSCAASGFTFSDYYMNWVRQAPGKGLEWVSVIGESGGSTYYADSVKGRFTISRDNSKNTLYLQMNSLRAEDTAVYYCAADPVSRWPKHGGGDYWGQGTLVTVSS
VL: B12 VL with Q24R, D28G, N31S, N34A, S53T, S94T, V95P, I96W
B14: the binding result was “binds”.

B15: MAdCAM Antibody Table 2 clone 5 (antibody, V domains shown)
VH: EVQLLESGGGLVQPGGSLRLSCAASGFTFSSYWMHWVRQAPGKGLEWVSSISPGGSNIDYADSVKGRFTISRDNSKNTLYLQMNSLRAEDTAVYYCAREVQLSHYDYWGQGTLVTVSS
VL: B12 VL with Q24R, D28G, N34A, A50G, S91A, Y92N, S94F, V95P, I96F
On to B15, for which the binding result is given as “binds”.

B16: MAdCAM Antibody Table 2 clone 76 (antibody, V domains shown)
VH: EVQLLESGGGLVQPGGSLRLSCAASGFTFDDYTMHWVRQAPGKGLEWVSDISGSGGSTYYADSVKGRFTISRDNSKNTLYLQMNSLRAEDTAVYYCAKDVVVAGTPLHFDYWGQGTLVTVSS
VL: B12 VL with S32Y, S53Y, S91A, Y92H, S93N, S94Y, V95P, K103R, V104L
Regarding B16, the binding result is “binds”.

B17: MAdCAM Antibody Table 2 clone 30 (antibody, V domains shown)
VH: EVQLLESGGGLVQPGGSLRLSCAASGFTFSSYAMHWVRQAPGKGLEWVSGISGSGGSAYYADSVKGRFTISRDNSKNTLYLQMNSLRAEDTAVYYCATSQAPVDYYYYGMDVWGQGTTVTVSS
VL: B12 VL with Q24R, D28S, N31S, S32W, N34A, S53N, S56R, S94I, V95P
Turning to B17, the binding result was “binds”.

B18: MAdCAM Antibody Table 2 clone 8 (antibody, V domains shown)
VH: QVQLVQSGAEVKKPGASVKVSCKASGYTFTGYHIHWVRQAPGQGLEWMGIINPSGGSTIYAQKFQGRVTMTRDTSTSTVYMELSSLRSEDTAVYYCAKDWSSWYLGPFDYWGQGTLVTVSS
VL: B12 VL with Q24R, D28N, N31S, S93T, S94T, V95P, I96Y
Take B18: the binding result is recorded as “binds”.

B19: MAdCAM Antibody Table 2 clone 65 (antibody, V domains shown)
VH: QVQLVQSGAEVKKPGASVKVSCKASGYTFTSYDINWVRQAPGQGLEWMGWMNPNSGNTGYAQKFQGRVTMTRDTSTSTVYMELSSLRSEDTAVYYCAKDSDYSNLLWDYWGQGTLVTVSS
VL: B12 VL with Q24R, S30T, S32D, N34G, A50Q, Q55E, S93T, S94I, V95P, I96L
B19: the binding result is on record as “binds”.

B20: MAdCAM Antibody Table 2 clone 74 (antibody, V domains shown)
VH: QVQLVQSGAEVKKPGASVKVSCKASGYTFTGYYMHWVRQAPGQGLEWMGIINPSGGNTKYAQKFQGRVTMTRDTSTSTVYMELSSLRSEDTAVYYCTTADYYYYMDVWGKGTTVTVSS
VL: DIQMTQSPSSLSASVGDRVTITCRASQGISNYLAWYQQKPGKAPKLLIYAASSLQSGVPSRFSGSGSGTDFTLTISSLQPEDFATYYCQQYYSNADFGQGTKVEIK
In the case of B20, the binding result is “binds”.

B21: MAdCAM antibody Table 1 clone 64 (scFv)
scFv: EVQLLESGGGLVKPGGSLRLSCAASGFAFSSHWMHWVRQAPGKGLEWVAGTSGSGESRDYADFVKGRFTISRDDSKNTLYLQMNSLKTEDTAVYYCARETYYYYYMDVWGKGTTVTVSSGGGGSGGGGSGGGGSGGGGSDIQMTQSPSSLSASVGDRVTITCRASQGISNYLAWYQQKPGKAPKLLIYDAANLEGGVPSRFSGSGSGTDFTLTISSLQPEDFATYYCQQSDIFPPTFGQGTKVEIK
As for B21, the binding result was “binds”.

B22: MAdCAM antibody Table 1 clone 63 (scFv)
scFv: EVQLLESGGGLVKPGGSLRLSCAASGFTFDDYAMHWVRQAPGKGLEWVASITSSSAFIDYAASVKGRFTISRDDSKNTLYLQMNSLKTEDTAVYYCARERVDWNSYFDLWGRGTLVTVSSGGGGSGGGGSGGGGSGGGGSEIVMTQSPATLSVSPGERATLSCRASQGISNSYLAWYQQKPGQAPRLLIYGASTRATGIPARFSGSGSGTEFTLTISSLQSEDFAVYYCQQYYTYPPTFGPGTKVDIK
For the molecule B22, the binding result was “binds”.
